Measured data: PubChem BioAssay AID504804 (Drosophila RNAi Screening Center, 2011)

- Purpose: 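Fly genes whose loss lessens doxorubicin-driven cell death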 (primary screen)
- Cell system: Drosophila Kc cells
- Reagent: long dsRNA against Drosophila genes, 0.5 µg dsRNA per well
- Time to read-out: 96 h (48 h knock-down, then 48 h drug)
- Treatment: doxorubicin 5 µg/ml for 48 h, added 48 h after dsRNA
- Measurement: 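Luminescent ATP counts per replicate, not normalised, reflecting viable cells after 48 h dsRNA knock-down followed by 48 h of 5 µg/ml doxorubicin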
- Direction: raw ATP luminescence: higher = more viable cells, protection from doxorubicin
- Call rule: 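z-score of 2 or more over plate mean in both duplicates, retained only when retests and separate dsRNAs confirm the protection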
The screen tested about 19,000 reagents; this is a random part of those that have a named target and a result. Of all reagents, 47 (0.25%) were called active. 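Signals are raw, not normalised; exact z-scores behind calls not deposited; actives needed confirmation, so some wells reaching 2 SD are inactive.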

predicted target	PubChem SID	raw ATP luminescence, replicate 1	raw ATP luminescence, replicate 2	call
Ski6	SID104182283	50480	65880	inactive
CG9265	SID104182970	48473	64603	inactive
CG9265	SID104182971	50603	42800	inactive
LBR	SID104184090	32547	29507	inactive
Jon25Biii	SID104182907	23940	27227	inactive
PIG-K	SID104198288	50550	50380	inactive
CG5883	SID104190344	86673	71387	inactive
Topors	SID104186323	88167	69223	inactive
l(3)04053	SID104191432	38287	39753	inactive
CG8349	SID104182875	49960	90987	inactive
CG13288	SID104189754	53460	78063	inactive
CG13282	SID104182046	74603	75427	inactive
CG14881	SID104194797	59890	63820	inactive
eIF3m	SID104186934	57177	50937	inactive
Pex10	SID104188391	54583	59857	inactive
CG16753	SID104188281	40900	45050	inactive
alpha4GT2	SID104195697	75060	81220	inactive
CG15800	SID104184063	43297	51077	inactive
CG13837	SID104194479	95820	73450	inactive
eve	SID104187406	47177	1.06e5	inactive
CG11076	SID104196989	45680	68140	inactive
Non3	SID104196151	46687	48910	inactive
aub	SID104183278	80517	61163	inactive
Orc1	SID104187288	1.65e5	1.96e5	inactive
CG13654	SID104194446	77750	61860	inactive
CG32651	SID104198733	1.64e5	1.98e5	inactive
l(3)05822	SID104195994	46780	48127	inactive
clu	SID104186973	55887	65403	inactive
FucTA	SID104190525	76413	48793	inactive
CG7460	SID104190642	52113	39307	inactive
CG43693	SID104188878	1.33e5	1.34e5	inactive
CG43693	SID104190417	55353	51553	inactive
Tspo	SID104180325	1.18e5	67373	inactive
CG15333	SID104197808	28210	39190	inactive
CG15333	SID104197945	27230	35480	inactive
CG33232 (retired record)	SID104187979	75193	69923	inactive
Rcd1	SID104186908	67420	59180	inactive
Spg7	SID104198261	48880	58040	inactive
ninaA	SID104180622	1.07e5	62587	inactive
CG34150	SID104193481	2.21e5	2.12e5	inactive
Osi10b	SID104192071	64597	79307	inactive
CG14445	SID104197730	39110	36120	inactive
CG6484	SID104186783	56203	57317	inactive
CG42262 (retired record)	SID104197420	1.63e5	1.51e5	inactive
CG42262 (retired record)	SID104197766	3.94e5	4.03e5	inactive
geko	SID104189836	89130	72480	inactive
geko	SID104189837	51313	47593	inactive
ci	SID104196964	55670	55390	inactive
ChAT	SID104193106	2.58e5	2.80e5	inactive
ChAT	SID104196401	58350	59900	inactive
CG10185	SID104193997	70830	82180	inactive
CG1632	SID104197350	1.71e5	1.89e5	inactive
CG1632	SID104197902	38850	38470	inactive
CG32091	SID104189933	81977	52153	inactive
CG32091	SID104190612	73403	57580	inactive
CG15452	SID104200315	3.60e5	3.70e5	inactive
TfIIA-S-2	SID104197583	66850	57880	inactive
CG15130	SID104182222	63780	58653	inactive
CG7606	SID104193038	1.30e5	1.80e5	inactive
CG7606	SID104196060	80230	88440	inactive
CG11756	SID104199216	2.94e5	3.04e5	inactive
CG34417	SID104197259	1.84e5	1.90e5	inactive
CG34417	SID104198124	29690	39430	inactive
Reg-2	SID104188482	66683	63627	inactive
Egfr	SID104183663	71620	83327	inactive
Egfr	SID104184405	78003	61770	inactive
Ms	SID104195833	46013	48960	inactive
Pex7	SID104190443	66577	81153	inactive
CG10680	SID104181885	53257	56250	inactive
gig	SID104191143	35503	48090	inactive
CG34302	SID104192543	56890	47387	inactive
grh	SID104185472	1.19e5	1.42e5	inactive
grh	SID104185475	85803	54557	inactive
grh	SID104187416	64747	67487	inactive
CG12645	SID104197643	4.27e5	3.74e5	inactive
Ance-3	SID104182440	22913	86503	inactive
Ance-3	SID104182441	63587	67040	inactive
dally	SID104188746	1.32e5	1.69e5	inactive
dally	SID104191130	31113	30927	inactive
Sps1	SID104187341	73400	71793	inactive
Cnep1r1	SID104200412	4.06e5	3.04e5	inactive
ClC-a	SID104194739	58317	49750	inactive
ClC-a	SID104194740	61543	60933	inactive
ClC-a	SID104195934	58093	30360	inactive

Part of the list above in another layout:
| predicted target | PubChem SID | raw ATP luminescence, replicate 1 | raw ATP luminescence, replicate 2 | call |
| --- | --- | --- | --- | --- |
| CG11756 | SID104199216 | 2.94e5 | 3.04e5 | inactive |
| CG34417 | SID104197259 | 1.84e5 | 1.90e5 | inactive |
| CG34417 | SID104198124 | 29690 | 39430 | inactive |
| Reg-2 | SID104188482 | 66683 | 63627 | inactive |
| Egfr | SID104183663 | 71620 | 83327 | inactive |
| Egfr | SID104184405 | 78003 | 61770 | inactive |
| Ms | SID104195833 | 46013 | 48960 | inactive |
| Pex7 | SID104190443 | 66577 | 81153 | inactive |
| CG10680 | SID104181885 | 53257 | 56250 | inactive |
